The values below come from US20160272706A1.

Sequences of proteins named here, by UniProt entry; tags and fusion partners are left off. A change or cut given only in a name is not applied to a line headed by its entry. A line that says so, or that is headed by a name, gives the form on record, which may keep a tag or linker.
Cynomolgus IL-13 (Q0PW92, form named): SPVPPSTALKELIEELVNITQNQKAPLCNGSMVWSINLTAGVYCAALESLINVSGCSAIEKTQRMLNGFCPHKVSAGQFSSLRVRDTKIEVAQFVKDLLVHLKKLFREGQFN

In this assay the target is Cynomolgus IL-13 (cynomolgus) (UniProt Q0PW92). The assay can be described thus: HTRF receptor-ligand competition: Cynomolgus IL-13 (312.5 pM) binding to labelled human IL-13 Receptor alpha 2; receptor alpha 2 titrated as reference.

These are yes or no findings as the source states them, for the method shown. Some entries that bind do so weakly or less than the wild type.

B1: human IL-13 Receptorα2 (R&D systems) (receptor, UniProt Q14627 27-343, looked up)
chain: DTEIKVNPPQDFEIVDPGYLGYLYLQWQPPLSLDHFKECTVEYELKYRNIGSETWKTIITKNLHYKDGFDLNKGIEAKIHTLLPWQCTNGSEVQSSWAETTYWISPQGIPETKVQDMDCVYYNWQYLLCSWKPGIGVLLDTNYNLFYWYEGLDHALQCVDYIKADGQNIGCRFPYLEASDYKDFYICVNGSSENKPIRSSYFTFQLQNIVKPLPPVYLTFTRESSCEIKLKWSIPLGPIPARCFDYEIEIREDDTTLVTATVENETYTLKTTNETRQLCFVVRSKVNIYCSDDGIWSEWSDKQCWEGEDLSKKTLLR
modifications: directly labelled with Dylight650
As for B1, the binding result is “binds”.
